According to US20180237497A1:
These are yes or no findings as the source states them, for the method shown. Some results given as binding are weak or reduced against the parent protein; the word gives no strength.

Protein sequences, listed by entry. Tags and fused reporters are not part of them. Lines headed by an entry give the natural chain unless they say otherwise; changes in a name come on top. Residues count along the entry.
UniProt P01344, residues 25-180: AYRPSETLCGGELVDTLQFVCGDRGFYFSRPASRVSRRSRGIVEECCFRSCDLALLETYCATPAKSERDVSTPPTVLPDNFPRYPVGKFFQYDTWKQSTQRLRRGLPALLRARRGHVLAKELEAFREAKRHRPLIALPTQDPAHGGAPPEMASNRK
UniProt P11717: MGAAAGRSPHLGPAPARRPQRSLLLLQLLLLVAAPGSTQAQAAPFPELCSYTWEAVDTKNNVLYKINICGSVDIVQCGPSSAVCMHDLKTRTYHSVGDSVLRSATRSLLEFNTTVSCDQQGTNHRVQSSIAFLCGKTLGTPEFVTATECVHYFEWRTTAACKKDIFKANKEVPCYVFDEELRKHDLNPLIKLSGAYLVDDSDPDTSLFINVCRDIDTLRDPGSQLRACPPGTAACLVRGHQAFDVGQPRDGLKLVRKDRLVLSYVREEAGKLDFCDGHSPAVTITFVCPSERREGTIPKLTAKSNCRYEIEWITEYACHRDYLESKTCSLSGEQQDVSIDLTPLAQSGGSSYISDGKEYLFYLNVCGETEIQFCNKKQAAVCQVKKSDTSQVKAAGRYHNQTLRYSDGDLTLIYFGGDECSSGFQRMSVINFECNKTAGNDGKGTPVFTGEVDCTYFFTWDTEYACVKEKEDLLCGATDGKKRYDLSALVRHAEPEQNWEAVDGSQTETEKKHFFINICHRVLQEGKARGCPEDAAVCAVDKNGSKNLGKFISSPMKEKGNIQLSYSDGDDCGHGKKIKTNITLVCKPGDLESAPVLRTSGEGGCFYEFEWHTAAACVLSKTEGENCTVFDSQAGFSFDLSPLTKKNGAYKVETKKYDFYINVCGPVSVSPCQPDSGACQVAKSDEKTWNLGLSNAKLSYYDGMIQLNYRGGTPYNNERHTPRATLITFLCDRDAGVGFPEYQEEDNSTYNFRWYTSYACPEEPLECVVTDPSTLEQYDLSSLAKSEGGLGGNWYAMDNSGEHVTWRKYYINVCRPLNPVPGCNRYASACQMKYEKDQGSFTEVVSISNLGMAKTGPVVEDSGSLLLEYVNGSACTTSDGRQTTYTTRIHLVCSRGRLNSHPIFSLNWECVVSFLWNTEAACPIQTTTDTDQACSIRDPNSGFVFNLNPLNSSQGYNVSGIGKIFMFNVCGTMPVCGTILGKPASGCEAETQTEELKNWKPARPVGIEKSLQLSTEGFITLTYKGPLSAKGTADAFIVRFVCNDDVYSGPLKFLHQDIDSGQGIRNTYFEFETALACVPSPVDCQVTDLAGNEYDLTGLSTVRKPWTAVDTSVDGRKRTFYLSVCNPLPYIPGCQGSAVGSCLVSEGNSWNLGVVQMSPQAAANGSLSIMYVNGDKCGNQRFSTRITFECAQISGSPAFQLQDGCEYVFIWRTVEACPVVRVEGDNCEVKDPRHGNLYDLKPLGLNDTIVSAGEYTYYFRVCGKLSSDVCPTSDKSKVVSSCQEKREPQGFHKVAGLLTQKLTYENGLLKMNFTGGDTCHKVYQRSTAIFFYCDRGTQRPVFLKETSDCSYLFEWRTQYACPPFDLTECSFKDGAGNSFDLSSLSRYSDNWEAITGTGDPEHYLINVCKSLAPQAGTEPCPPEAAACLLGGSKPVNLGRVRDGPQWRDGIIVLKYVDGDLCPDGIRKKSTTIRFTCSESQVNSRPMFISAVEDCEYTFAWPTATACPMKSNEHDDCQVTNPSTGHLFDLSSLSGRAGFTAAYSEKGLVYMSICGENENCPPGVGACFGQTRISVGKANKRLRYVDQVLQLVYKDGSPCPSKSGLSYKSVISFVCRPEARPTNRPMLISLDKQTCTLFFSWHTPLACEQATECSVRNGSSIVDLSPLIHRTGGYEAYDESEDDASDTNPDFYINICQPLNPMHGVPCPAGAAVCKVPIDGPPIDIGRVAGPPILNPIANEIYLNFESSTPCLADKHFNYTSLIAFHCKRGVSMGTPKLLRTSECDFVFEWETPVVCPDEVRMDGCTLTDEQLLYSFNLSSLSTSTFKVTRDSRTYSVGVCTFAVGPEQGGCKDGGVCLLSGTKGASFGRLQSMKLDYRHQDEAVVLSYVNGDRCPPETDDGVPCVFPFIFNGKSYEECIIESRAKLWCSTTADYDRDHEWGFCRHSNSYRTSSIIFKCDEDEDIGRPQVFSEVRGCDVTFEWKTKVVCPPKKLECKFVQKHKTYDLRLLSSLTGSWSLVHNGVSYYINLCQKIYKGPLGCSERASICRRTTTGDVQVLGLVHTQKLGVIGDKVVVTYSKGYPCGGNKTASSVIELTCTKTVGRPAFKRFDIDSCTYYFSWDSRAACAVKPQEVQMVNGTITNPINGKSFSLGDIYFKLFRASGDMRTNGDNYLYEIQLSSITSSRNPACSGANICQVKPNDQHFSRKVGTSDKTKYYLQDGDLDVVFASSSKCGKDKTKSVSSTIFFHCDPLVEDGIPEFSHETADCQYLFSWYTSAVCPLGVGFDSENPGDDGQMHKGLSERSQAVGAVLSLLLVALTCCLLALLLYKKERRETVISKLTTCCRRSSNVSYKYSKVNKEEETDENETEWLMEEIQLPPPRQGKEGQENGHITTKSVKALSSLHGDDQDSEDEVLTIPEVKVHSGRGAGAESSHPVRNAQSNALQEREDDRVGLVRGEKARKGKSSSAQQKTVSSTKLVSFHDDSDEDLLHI

Target: pro-IGF2^1-156 (UniProt P01344)
Assay: SPR, antibody capture

Question: “Fc-domain 11^I1572A fusion protein (from UniProt P11717 1511-1650) (Fc fusion)” was tested. Which binding did it give?
Answer: binds
